Assay results as given in the supplement of paper PMC10338343.
± gives the standard deviation. The list shows a part of the results, in another mix than the full data. The uncertainty is large for many entries.

Test system: MILI (PIWIL2) piRISC loaded with piRNA #1 (26 nt)
Test: pre-steady-state target cleavage rate (min^-1); MIWI and MILI are mouse PIWI proteins and EfPiwi is from a freshwater sponge; tags in brackets are library labels; higher = faster piRNA-guided slicing of the target
Conditions: guide: piRNA #1 5'p-UGAGGUAGUAGGUUGUAUAGUAUCCA; auxiliary factor: 500 nM mouse GTSF1
In short: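 Using HEPES–potassium acetate buffer at 33 °C, 1 nM active affinity-purified piRISC with a single synthetic guide was mixed with 0.1 nM transcribed, DNA-blocked target RNA library for 0–8 or 0–960 min, with or without 500 nM GTSF1 partner protein. Uncleaved targets were sequenced and normalised to depth and to weakly complementary targets, and three trials were pooled with k3 capped at 0.0001 min^-1. A burst-and-steady-state fit gave the pre-steady-state cleavage rate.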

Sequence | pre-steady-state target cleavage rate
GGAGAGGAUAAUAUACAACCUACUACCUCA | 0.135 ± 0.01
GGAGACGAUACUAUACACACCUACUACCUCA | 0.00188 ± 0.006
GGAGACCUAUGUAUACAAGGAUGAUGGAGA [g13:g19:cont:t1A] | 0.0001 ± 0.023
GGAGACGAUACUAUACAACCUACUCCUCA | 0.0114 ± 0.0032
GGAGACCAUACUAUACAACCUACUAACCUCA | 0.226 ± 0.019
GGAGAGGGAUACUAUACAACCUACUACCUCA | 0.237 ± 0.015
GGAGUGGAUACUAACAACCUACUACCUCA | 0.183 ± 0.011
GGAGACCUAUCUAUACAACCUACUACCCA | 0.098 ± 0.019
GGAGACCUAUGAUAUGAACCUACCUACCUCA | < 0.0001
GGAGACCUAUGAUAUGAACCUACUACCCCA | < 0.0001
GGAGACCUAUGAUAUGUACCUCACUACCUCA | 0.000103 ± 0.026
GGAGACGAUACUAUACAACCUACUACACUCA | 0.202 ± 0.03
GGAGUGGAUACUUUACAUCCUACUACCUCA | 0.253 ± 0.012
GGAGACGAUACUAUACAUCCUACUACCACA | 0.334 ± 0.021
GGAGUGGAUACUAUACAACCUAGUACCUGA | 0.000609 ± 0.0058
GGAGACCUAACUAUACUUGGAUGAUGGAGA [g15:g21:cont:t1A] | 0.000108 ± 0.089
GGAGACCUUACUAUACAACUCUACUACCUCA | 0.000634 ± 0.0089
GGAGUGGAUACUAUACAAGCUACUUCCUCA | 0.0765 ± 0.0095
GGAGACCUAUGAUAUGAACCAUCUACCUCA | 0.00011 ± 0.029
GGAGACGAAACUAUACAACCAACUACCUCA | 0.00424 ± 0.0046

Sequence | pre-steady-state target cleavage rate
GGAGUGGAAACUAUACAUCCUACUACCUCA | 0.275 ± 0.024
GGAGACGAUACUAUACAACCUAGUACCUGA | 0.00155 ± 0.0061
GGAGACCUUACUAUACAACCAUGAUGGAGA [g11:g22:cont:t1A] | 0.000658 ± 0.01
GGAGACCUAUGAUAUGUUCCUAGAACCUCA | 0.00014 ± 0.016
GGAGACCAUACUAUACAACCUACUGACCUCA | 0.0765 ± 0.017
GGAGACCUUACUAUACAACACUACUACCUCA | 0.000869 ± 0.0038
GGAGACCUAUGAUAUGUUCGUACAACCUCA | 0.000137 ± 0.02
GGAGACCUAUGAUAUGUACCUAGUACCUGA | 0.000102 ± 0.013
GGAGACCUAUGUAUACAACCUUCUACGUCA | 0.00217 ± 0.0031
GGAGACCAUACAUUACAACCUACUACCUCA | 0.0869 ± 0.014
GGAGACGAUACGAUACAACCUACUACCUCA | 0.193 ± 0.018
GGAGACCUAACUAAACAACCUACUACCUGA | 0.0558 ± 0.021
GGAGACCUAUCUAUACAACCUACUACCUCC [g2:g20:cont:t1C] | 0.106 ± 0.011
GGAGACCUAACUAUACAACCUAGUACCACA | 0.00434 ± 0.0056
GGAGACCUAUGAUAUGAACCAUGUACCUCA | 0.000118 ± 0.022
GGAGACCUAUGAUUACAACGAUGAUGGAGA [g12:g17:cont:t1A] | 0.000359 ± 0.011
GGAGUGGAUACUUAUCAACCUACUACCUCA | 0.149 ± 0.011
GGAGACCAUACUAUACAACCUACUUGCUCA | 0.13 ± 0.032
GGAGACGAUACUAUACAACCUACUAGCUGA | 0.0101 ± 0.0055
GGAGAGGAUACUAUACAACCUACUCCUCA | 0.00213 ± 0.0025

2 consecutive records already listed, quoted:
Sequence | pre-steady-state target cleavage rate
GGAGUGGAAACUAUACAUCCUACUACCUCA | 0.275 ± 0.024
GGAGACGAUACUAUACAACCUAGUACCUGA | 0.00155 ± 0.0061
